{
  "sequences": {"note": "Amino acid sequences for entries named in this document (tags omitted).", "UniProt Q0JBA9, entry or part of it": "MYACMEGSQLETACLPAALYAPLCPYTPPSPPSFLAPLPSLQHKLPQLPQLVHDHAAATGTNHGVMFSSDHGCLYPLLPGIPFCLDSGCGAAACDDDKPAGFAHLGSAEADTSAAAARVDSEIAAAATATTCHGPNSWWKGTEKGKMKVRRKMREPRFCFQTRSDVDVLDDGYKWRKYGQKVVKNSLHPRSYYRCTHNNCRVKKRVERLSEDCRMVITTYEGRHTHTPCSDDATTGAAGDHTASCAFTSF"},
  "source": "paper PMC7819943",
  "about": "“Rice protein-binding microarrays: a tool to detect cis-acting elements near promoter regions in rice”",
  "note": "This is one part of the list.",
  "data": [
    {"biological_target": "OsWRKY34 (Oryza sativa, UniProt Q0JBA9 1-250)", "assay": "protein-binding microarray (RPBM); PBS, 2% BSA, 51.3 ng/ul salmon testes DNA, 50 uM zinc acetate, 200 nM TF, 25 C, 1 h; high values mean tight binding", "conditions": "protein: recombinant; tags: N-terminal polyhistidine and DsRed monomer fusion (pET32a); label: CyDye5-dUTP incorporated in the synthesized complementary strand; 3' TTTTT single-stranded linker to array surface; dsDNA, one strand shown", "procedure,_shortened": "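Binding signal is defined as the fluorescence intensity of each feature in arbitrary units, read on an Axon 4000B scanner. Transcription factors with N-terminal polyhistidine and DsRed fusions came from E. coli BL21-CodonPlus and were purified on Ni–NTA. They were incubated at 200 nM for 1 h at 25 °C on a custom Agilent array that had been made double-stranded with Cy5-dUTP, with 50 µM zinc acetate present, and the array was washed.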", "values": [
      {"sequence": "GTTGTGTTGTTGTTCATTATCACTTTTAGGTATTGTCATGCGGAGTCACCTAGTGCAG", "binding signal": "9080 fluorescence intensity (a.u.)"},
      {"sequence": "CGCCATGATTTTCGTTCATCCATAGCTTCTGCAGCGCCGGCGGAGTCACCTAGTGCAG", "binding signal": "11700 fluorescence intensity (a.u.)"},
      {"sequence": "GTTGTTGTTGTTGGTTTGGTTTGCGAGTCTGCAACCAATGCGGAGTCACCTAGTGCAG", "binding signal": "9020 fluorescence intensity (a.u.)"},
      {"sequence": "CTTTTTGTCAATTGTCCCTTTCAACTTTTCTCCCTTCTCCCGGAGTCACCTAGTGCAG", "binding signal": "8320 fluorescence intensity (a.u.)"},
      {"sequence": "TTGCTTTCAGTGGCTTTCCTTTACATTTCCAACACTGAGCCGGAGTCACCTAGTGCAG", "binding signal": "9530 fluorescence intensity (a.u.)"},
      {"sequence": "CGCCTCGCGGGAGACCACACATTAATTCCTCGCGCCCCATCGGAGTCACCTAGTGCAG", "binding signal": "9600 fluorescence intensity (a.u.)"},
      {"sequence": "ACTCTCTCCGCCGCCGGCCGCCGAATCTCCGGCGCCGATGCGGAGTCACCTAGTGCAG", "binding signal": "8220 fluorescence intensity (a.u.)"},
      {"sequence": "CGTAGGATTCTAAAGGGGTTGTGGTGATTTGGGACCTAGACGGAGTCACCTAGTGCAG", "binding signal": "8080 fluorescence intensity (a.u.)"},
      {"sequence": "CCCTTGTCATCGAAGAACGGGATGGCGTGGTGGGTATAGTCGGAGTCACCTAGTGCAG", "binding signal": "8470 fluorescence intensity (a.u.)"},
      {"sequence": "GTACCGTCACTCGCCGGCGTTCAGGCTGACCATTGAACCCCGGAGTCACCTAGTGCAG", "binding signal": "8370 fluorescence intensity (a.u.)"},
      {"sequence": "CACCAACGTCACATTTTGTCTTGTTTCTTTTTTAAAAAAACGGAGTCACCTAGTGCAG", "binding signal": "8650 fluorescence intensity (a.u.)"},
      {"sequence": "AACGCCATGTTTTACGTTTTCCCGCGACTTTGTTGGCGCGCGGAGTCACCTAGTGCAG", "binding signal": "8210 fluorescence intensity (a.u.)"},
      {"sequence": "CCTCTCAATTTTCCAATTTCATTTGTTACTTTTTTGTCACCGGAGTCACCTAGTGCAG", "binding signal": "9580 fluorescence intensity (a.u.)"},
      {"sequence": "CCCCATCACCAGCATTGGCTCGTTCAACTTCCCCAGCTACCGGAGTCACCTAGTGCAG", "binding signal": "10000 fluorescence intensity (a.u.)"},
      {"sequence": "CCCCGACGACCGGTCACTGCAATAACTCGCCATCACCTAGCGGAGTCACCTAGTGCAG", "binding signal": "8840 fluorescence intensity (a.u.)"},
      {"sequence": "ACATCTCGCGTTGCGCCGCGCGCTTCTCTCCCACTCCACTCGGAGTCACCTAGTGCAG", "binding signal": "12400 fluorescence intensity (a.u.)"},
      {"sequence": "ACTATCTATCTCTATTCACAGTCTTGTAGTTATTAAGTACCGGAGTCACCTAGTGCAG", "binding signal": "9960 fluorescence intensity (a.u.)"},
      {"sequence": "CCGGCCCGTCTTGGCACGGCCCATTTGGCCAGGTCTACCTCGGAGTCACCTAGTGCAG", "binding signal": "8050 fluorescence intensity (a.u.)"},
      {"sequence": "AACAGTGTTCGGTTTGGATCCGCGCGCCGTCTGAGTTTTCCGGAGTCACCTAGTGCAG", "binding signal": "8810 fluorescence intensity (a.u.)"},
      {"sequence": "GGAGGTCGTGGGAACAAATTCTTTCATATATGTGTGTGCTCGGAGTCACCTAGTGCAG", "binding signal": "9850 fluorescence intensity (a.u.)"},
      {"sequence": "CATCGCCATCGCCATCGCCAATCACACTCTCTGTTAGCTCCGGAGTCACCTAGTGCAG", "binding signal": "8160 fluorescence intensity (a.u.)"},
      {"sequence": "ATCTTTGTGCGTCTTGACTATCTAGCAATTCAGTTGCTTTCGGAGTCACCTAGTGCAG", "binding signal": "9630 fluorescence intensity (a.u.)"},
      {"sequence": "TGTAATAAGTACCATCCTTCGTTTTACGTTAGCACTCTTTCGGAGTCACCTAGTGCAG", "binding signal": "8630 fluorescence intensity (a.u.)"},
      {"sequence": "TATCTGTTCTTCTTTGCAATAATCTGTGTGCATTTGGAGCCGGAGTCACCTAGTGCAG", "binding signal": "8780 fluorescence intensity (a.u.)"},
      {"sequence": "TCACTGCCATATACATGATACTTACATACCGACGTACTACCGGAGTCACCTAGTGCAG", "binding signal": "12200 fluorescence intensity (a.u.)"},
      {"sequence": "AATTTATAACCGTGACCTGCTGCCATATGCTAACCGTTTACGGAGTCACCTAGTGCAG", "binding signal": "8260 fluorescence intensity (a.u.)"},
      {"sequence": "TTAGTGTTCGGTTAAAACAAGTTTTACAATGGGATTCTCTCGGAGTCACCTAGTGCAG", "binding signal": "8480 fluorescence intensity (a.u.)"},
      {"sequence": "AAACCGGCACTGATATGCCTTTTCAACTGGTATTGTTGACCGGAGTCACCTAGTGCAG", "binding signal": "8410 fluorescence intensity (a.u.)"},
      {"sequence": "TTTGACGCCGTTGACTTTTTTAAACATGCTTGATCATTCACGGAGTCACCTAGTGCAG", "binding signal": "13700 fluorescence intensity (a.u.)"},
      {"sequence": "AGCCGTTGTTCTTCATGTTCGTTTCAGTATTTAACGATACCGGAGTCACCTAGTGCAG", "binding signal": "8200 fluorescence intensity (a.u.)"},
      {"sequence": "CTTGTCAGCTTACACCCATGCTCTCTCAAGACATTGTTCTCGGAGTCACCTAGTGCAG", "binding signal": "9530 fluorescence intensity (a.u.)"},
      {"sequence": "GAGGTGTGTGTTCGTAGAGATGAGTGCGTGCGCGTTGTGACGGAGTCACCTAGTGCAG", "binding signal": "9140 fluorescence intensity (a.u.)"},
      {"sequence": "TACTTTGGTTGACATTTTATTGGGCTCATTATACTTGGCACGGAGTCACCTAGTGCAG", "binding signal": "8960 fluorescence intensity (a.u.)"},
      {"sequence": "CGGGACTTGGGACAAATACAATCTACACATTCTGTCATCTCGGAGTCACCTAGTGCAG", "binding signal": "8190 fluorescence intensity (a.u.)"},
      {"sequence": "GCACCACAAATGTCCGCTTTCCAACTGCTATGGCGTATACCGGAGTCACCTAGTGCAG", "binding signal": "13400 fluorescence intensity (a.u.)"},
      {"sequence": "ACATTACTACCAGCAGCCCATTTCAGTTGCATTGAACTCTCGGAGTCACCTAGTGCAG", "binding signal": "10000 fluorescence intensity (a.u.)"},
      {"sequence": "GCCGTCGCCCTCCACCACCGTACAGCTAGTAGCCCGACGCCGGAGTCACCTAGTGCAG", "binding signal": "8560 fluorescence intensity (a.u.)"},
      {"sequence": "TTAGGGTTTCGTGTTTCGTCCCGCCGCCGGGTTCCCGCGACGGAGTCACCTAGTGCAG", "binding signal": "8770 fluorescence intensity (a.u.)"},
      {"sequence": "GTTTGTGGAGTGTTATATCACATGTTAATACACCTTTCCACGGAGTCACCTAGTGCAG", "binding signal": "8060 fluorescence intensity (a.u.)"},
      {"sequence": "TCTGAATTTGTGGTGGTTTCACTTTCATCGGTTCATCGCTCGGAGTCACCTAGTGCAG", "binding signal": "8970 fluorescence intensity (a.u.)"},
      {"sequence": "TCAGCGCGCACGTGCTTAATCGAATCGATTATGTTTTCATCGGAGTCACCTAGTGCAG", "binding signal": "8700 fluorescence intensity (a.u.)"},
      {"sequence": "CGTGAACACTGTCCGCCTGGCTGTCCTACTCTTCCTTCTCCGGAGTCACCTAGTGCAG", "binding signal": "9190 fluorescence intensity (a.u.)"}
    ]}
  ]
}
